# Publication PMC12594589
# B1: TTC36 (as used in the co-IP with YBX3 truncation mutants) (protein, UniProt A6NLP5 1-189)
# chain: MGTPNDQAVLQAIFNPDTPFGDIVGLDLGEEAEKEEREEDEVFPQAQLEQSKALELQGVMAAEAGDLSTALERFGQAICLLPERASAYNNRAQARRLQGDVAGALEDLERAVELSGGRGRAARQSFVQRGLLARLQGRDDDARRDFERAARLGSPFARRQLVLLNPYAALCNRMLADMMGQLRRPRDSR
# Molecular target: Flag-YBX3#2 (YBX3 truncation mutant #2, cold shock domain deleted)
# Assay: co-IP; co-IP of TTC36 with FLAG-tagged full-length or truncated YBX3 constructs (#1, #2, #3); cells not given
binder,measurement,value
B1,binding,binds

# No constants are given. Whether binding was seen depends on the method and setting. In cells and extracts the contact can be indirect. Binding can be weak; no strength is given.
